Results deposited as PubChem BioAssay AID1259254 (NCATS, 2017).
Purpose: 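Finding genes that stop cells copying their DNA twice in one cycle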 (primary screen). Cell system: human HCT116 colorectal cancer cells. Reagent: single siRNA against human genes. Time to read-out: 3 days. Detection: 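Imaged Hoechst DNA stain sorts each cell into a cycle phase by DNA amount; per plate, G2 fraction set to 0% for non-targeting and 100% for GMNN siRNA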. Scale: G2 robust z-score: higher = more G2 cells, more excess DNA replication. Active means: 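An siRNA counts as active if its G2 robust z-score lies at least 5 MADs above the screen median; here such calls match roughly 38% of GMNN control or more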.
This is an unselected part of about 59,000 reagents tested. About 1,550 of all reagents (2.6%) were called active. 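G2 share is only a proxy for re-replication; each gene was hit by three separate siRNAs, and active genes were retested.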 A number with no mark means an inactive call. The numbers tell different reagents against one gene apart. Not all columns of the deposit are shown. Not given: the amount of reagent.

TP53INP1 (tumor protein p53 inducible nuclear protein 1) #1 | G2 robust z-score = 0.6
TP53INP1 (tumor protein p53 inducible nuclear protein 1) #2 | G2 robust z-score = -0.647
TP53INP1 (tumor protein p53 inducible nuclear protein 1) #3 | G2 robust z-score = 0.625
KIF19BP (kinesin family member 19B, pseudogene) #1 | G2 robust z-score = -0.287
KIF19BP (kinesin family member 19B, pseudogene) #2 | G2 robust z-score = 0.153
KIF19BP (kinesin family member 19B, pseudogene) #3 | G2 robust z-score = -1.04
FEM1C (fem-1 homolog C) #1 | G2 robust z-score = -1.05
FEM1C (fem-1 homolog C) #2 | G2 robust z-score = -0.734
FEM1C (fem-1 homolog C) #3 | G2 robust z-score = -0.308
IGSF9 (immunoglobulin superfamily member 9) #1 | G2 robust z-score = 1.27
IGSF9 (immunoglobulin superfamily member 9) #2 | G2 robust z-score = -0.133
IGSF9 (immunoglobulin superfamily member 9) #3 | G2 robust z-score = 1.33

2 successive records from above, for reference:
FEM1C (fem-1 homolog C) #3 | G2 robust z-score = -0.308
IGSF9 (immunoglobulin superfamily member 9) #1 | G2 robust z-score = 1.27
